Test results published in PMC3025917.
Results are given in words; binding and its absence hold for the method and conditions named. Binding seen in cells or lysates may run through a third protein. Some results given as binding are weak or reduced against the parent protein; the word gives no strength. Tags and fused reporters may be left off the sequences shown.

Columns and labels:
[1] = molecular target: T1, TAP-tagged Bur2 (S. cerevisiae) (UniProt Q05949); test: co-IP; data not shown; Bur1 and Bur2 co-immunoprecipitate, taken to show that the Bur2 pulldown holds both factors
T1 sequence: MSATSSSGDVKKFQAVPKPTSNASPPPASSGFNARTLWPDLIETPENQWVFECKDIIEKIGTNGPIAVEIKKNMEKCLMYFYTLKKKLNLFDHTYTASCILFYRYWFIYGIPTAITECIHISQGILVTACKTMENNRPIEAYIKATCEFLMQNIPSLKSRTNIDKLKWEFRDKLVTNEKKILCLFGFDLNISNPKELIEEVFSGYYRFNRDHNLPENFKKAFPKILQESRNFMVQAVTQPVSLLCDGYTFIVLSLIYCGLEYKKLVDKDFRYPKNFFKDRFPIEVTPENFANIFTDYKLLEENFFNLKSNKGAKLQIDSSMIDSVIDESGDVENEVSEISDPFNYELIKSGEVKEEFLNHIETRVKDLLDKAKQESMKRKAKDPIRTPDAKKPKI

[2] = molecular target: T1, TAP-tagged Bur2 (S. cerevisiae); test: co-IP; initial co-immunoprecipitations, before in vivo formaldehyde cross-linking was introduced; Bur2-TAP strains with galactose-induced 6×His-Cus2; parallel Cus2-His or Bur2-TAP immunoprecipitates examined by western
[3] = molecular target: T1, TAP-tagged Bur2 (S. cerevisiae); test: co-IP; in vivo cross-linking with 1% formaldehyde for 15 minutes; whole cell extracts in 50 mM HEPES-KOH pH 7.5, 140 mM NaCl, 1 mM EDTA, 1% Triton-X, 0.1% deoxycholate; incubated 2.5 hours at 4°C with IgG Sepharose (Bur2-TAP) or NiNTA beads (Cus2-His); western with anti-TAP and anti-His
[4] = molecular target: T2, 6×His epitope-tagged Cus2 (S. cerevisiae) (UniProt P53830); test: as above
T2 sequence: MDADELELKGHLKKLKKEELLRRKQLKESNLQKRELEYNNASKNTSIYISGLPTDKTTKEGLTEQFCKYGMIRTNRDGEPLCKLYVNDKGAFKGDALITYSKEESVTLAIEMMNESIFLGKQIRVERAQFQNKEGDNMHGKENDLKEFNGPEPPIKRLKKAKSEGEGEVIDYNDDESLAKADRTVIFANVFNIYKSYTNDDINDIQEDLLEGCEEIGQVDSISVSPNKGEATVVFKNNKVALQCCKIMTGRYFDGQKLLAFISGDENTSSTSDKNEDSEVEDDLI

B1: Bur1 (protein, UniProt P23293 1-657)
chain: MSDNGSPAVLPKTEFNKYKIGKVKSTPAIQRDAKTNLTYIKLRKRSSEKVYGCTVFQNHYREDEKLGQGTFGEVYKGIHLETQRQVAMKKIIVSVEKDLFPITAQREITILKRLNHKNIIKLIEMVYDHSPDITNAASSNLHKSFYMILPYMVADLSGVLHNPRINLEMCDIKNMMLQILEGLNYIHCAKFMHRDIKTANILIDHNGVLKLADFGLARLYYGCPPNLKYPGGAGSGAKYTSVVVTRWYRAPELVLGDKQYTTAVDIWGVGCVFAEFFEKKPILQGKTDIDQGHVIFKLLGTPTEEDWAVARYLPGAELTTTNYKPTLRERFGKYLSETGLDFLGQLLALDPYKRLTAMSAKHHPWFKEDPLPSEKITLPTEESHEADIKRYKEEMHQSLSQRVPTAPRGHIVEKGESPVVKNLGAIPRGPKKDDASFLPPSKNVLAKPPPSKIRELHQNPRPYHVNSGYAKTAIPPPAAPAGVNRYGPNNSSRNNRFSGNSTAPNNSRNPVNRFHPETNVSSKYNKVPLPLGPQSRYQGNSNESRYKNSPNDSRYHNPRYVNKPETNFNRQPQKYSRQESNAPINKNYNPSNGSRNMAGDHHQGSRPSHPQFPISPSQGQHQLTSKPIEKKNGSFKDERAKPDESKEFQNSDIADLY
Q: Which binding [1] does the source give for B1 here?
A: Its binding is “binds”.

B2: 6×His epitope-tagged Cus2 (protein, UniProt P53830 1-285)
chain: MDADELELKGHLKKLKKEELLRRKQLKESNLQKRELEYNNASKNTSIYISGLPTDKTTKEGLTEQFCKYGMIRTNRDGEPLCKLYVNDKGAFKGDALITYSKEESVTLAIEMMNESIFLGKQIRVERAQFQNKEGDNMHGKENDLKEFNGPEPPIKRLKKAKSEGEGEVIDYNDDESLAKADRTVIFANVFNIYKSYTNDDINDIQEDLLEGCEEIGQVDSISVSPNKGEATVVFKNNKVALQCCKIMTGRYFDGQKLLAFISGDENTSSTSDKNEDSEVEDDLI
Q: How did the binding [2] turn out when B2 was run?
A: Its binding is “no binding”.

Q: And the binding [3]?
A: Its binding is “no binding”.

B3: TAP-tagged Bur2 (protein, UniProt Q05949 1-395)
chain: MSATSSSGDVKKFQAVPKPTSNASPPPASSGFNARTLWPDLIETPENQWVFECKDIIEKIGTNGPIAVEIKKNMEKCLMYFYTLKKKLNLFDHTYTASCILFYRYWFIYGIPTAITECIHISQGILVTACKTMENNRPIEAYIKATCEFLMQNIPSLKSRTNIDKLKWEFRDKLVTNEKKILCLFGFDLNISNPKELIEEVFSGYYRFNRDHNLPENFKKAFPKILQESRNFMVQAVTQPVSLLCDGYTFIVLSLIYCGLEYKKLVDKDFRYPKNFFKDRFPIEVTPENFANIFTDYKLLEENFFNLKSNKGAKLQIDSSMIDSVIDESGDVENEVSEISDPFNYELIKSGEVKEEFLNHIETRVKDLLDKAKQESMKRKAKDPIRTPDAKKPKI
Q: With B3 as the binder, how does the binding [4] read?
A: Its binding is “no binding”.
